From PMC3841102, “Activation of Smurf E3 Ligase Promoted by Smoothened Regulates Hedgehog Signaling through Targeting Patched Turnover” (PLoS Biology, 2013)
Residue numbers refer to the chain shown, from its start. Where two headings read alike, the source gives them in different places. These are yes or no findings as the source states them, for the method shown. For part of these data: Binding seen in cells or lysates may run through a third protein. Some binding calls cover weakened binding; strength is not graded here. Tags and fused reporters may be left off the sequences shown.

Amino acid sequences for entries named in this document (tags omitted).
UniProt Q9Y0H4: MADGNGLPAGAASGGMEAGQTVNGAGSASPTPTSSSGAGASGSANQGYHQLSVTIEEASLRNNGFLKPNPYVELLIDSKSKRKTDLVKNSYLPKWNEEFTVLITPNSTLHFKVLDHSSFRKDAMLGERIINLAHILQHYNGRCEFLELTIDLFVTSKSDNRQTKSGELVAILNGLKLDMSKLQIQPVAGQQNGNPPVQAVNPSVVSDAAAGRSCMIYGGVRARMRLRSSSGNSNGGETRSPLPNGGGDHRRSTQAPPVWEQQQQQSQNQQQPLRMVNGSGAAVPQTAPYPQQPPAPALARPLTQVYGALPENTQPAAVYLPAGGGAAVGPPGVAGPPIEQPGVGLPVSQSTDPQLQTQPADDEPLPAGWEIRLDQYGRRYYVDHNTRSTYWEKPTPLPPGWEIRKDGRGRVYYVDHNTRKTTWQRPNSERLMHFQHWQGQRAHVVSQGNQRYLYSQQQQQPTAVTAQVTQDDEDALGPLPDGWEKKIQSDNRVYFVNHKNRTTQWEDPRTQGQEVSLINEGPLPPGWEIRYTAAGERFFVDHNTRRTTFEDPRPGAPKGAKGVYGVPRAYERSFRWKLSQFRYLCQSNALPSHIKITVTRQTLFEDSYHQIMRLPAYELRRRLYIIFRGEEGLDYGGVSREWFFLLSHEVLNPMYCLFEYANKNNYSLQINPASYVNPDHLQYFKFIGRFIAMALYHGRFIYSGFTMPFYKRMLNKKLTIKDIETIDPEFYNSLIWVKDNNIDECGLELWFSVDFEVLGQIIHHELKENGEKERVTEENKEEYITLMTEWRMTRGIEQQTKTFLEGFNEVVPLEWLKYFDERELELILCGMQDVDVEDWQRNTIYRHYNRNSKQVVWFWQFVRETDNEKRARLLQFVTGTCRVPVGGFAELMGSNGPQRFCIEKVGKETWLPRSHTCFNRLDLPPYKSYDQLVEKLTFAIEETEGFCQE

What was measured:
[1] = biological target: T1, Ptc^CTD (two-hybrid fusion) (Drosophila) (UniProt P18502); assay: two-hybrid; AH109 yeast; bait vector pGBKT7, prey vector pACT2; growth on permissive (-Leu/-Trp) and restrictive (-Ade/-His/-Leu/-Trp) medium
T1 sequence: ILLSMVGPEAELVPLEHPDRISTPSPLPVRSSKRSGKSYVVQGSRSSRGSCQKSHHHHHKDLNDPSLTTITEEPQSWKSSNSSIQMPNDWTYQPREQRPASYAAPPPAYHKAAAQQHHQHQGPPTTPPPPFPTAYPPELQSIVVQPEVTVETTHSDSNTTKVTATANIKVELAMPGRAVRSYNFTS

[2] = biological target: T2, Flag-tagged Smurf^C1029A (catalytic dead form of Smurf) (Drosophila) (UniProt Q9V853); assay: co-IP; transfected S2 cells, lysates after 48 h; anti-Flag M2 affinity gel or anti-Myc affinity gel; NaCl adjusted to 500 mM, washes with 500 mM NaCl; Western blot; for Smo with Smurf (Figure 5C,D) cells treated with Hh medium for 12 h
T2 sequence: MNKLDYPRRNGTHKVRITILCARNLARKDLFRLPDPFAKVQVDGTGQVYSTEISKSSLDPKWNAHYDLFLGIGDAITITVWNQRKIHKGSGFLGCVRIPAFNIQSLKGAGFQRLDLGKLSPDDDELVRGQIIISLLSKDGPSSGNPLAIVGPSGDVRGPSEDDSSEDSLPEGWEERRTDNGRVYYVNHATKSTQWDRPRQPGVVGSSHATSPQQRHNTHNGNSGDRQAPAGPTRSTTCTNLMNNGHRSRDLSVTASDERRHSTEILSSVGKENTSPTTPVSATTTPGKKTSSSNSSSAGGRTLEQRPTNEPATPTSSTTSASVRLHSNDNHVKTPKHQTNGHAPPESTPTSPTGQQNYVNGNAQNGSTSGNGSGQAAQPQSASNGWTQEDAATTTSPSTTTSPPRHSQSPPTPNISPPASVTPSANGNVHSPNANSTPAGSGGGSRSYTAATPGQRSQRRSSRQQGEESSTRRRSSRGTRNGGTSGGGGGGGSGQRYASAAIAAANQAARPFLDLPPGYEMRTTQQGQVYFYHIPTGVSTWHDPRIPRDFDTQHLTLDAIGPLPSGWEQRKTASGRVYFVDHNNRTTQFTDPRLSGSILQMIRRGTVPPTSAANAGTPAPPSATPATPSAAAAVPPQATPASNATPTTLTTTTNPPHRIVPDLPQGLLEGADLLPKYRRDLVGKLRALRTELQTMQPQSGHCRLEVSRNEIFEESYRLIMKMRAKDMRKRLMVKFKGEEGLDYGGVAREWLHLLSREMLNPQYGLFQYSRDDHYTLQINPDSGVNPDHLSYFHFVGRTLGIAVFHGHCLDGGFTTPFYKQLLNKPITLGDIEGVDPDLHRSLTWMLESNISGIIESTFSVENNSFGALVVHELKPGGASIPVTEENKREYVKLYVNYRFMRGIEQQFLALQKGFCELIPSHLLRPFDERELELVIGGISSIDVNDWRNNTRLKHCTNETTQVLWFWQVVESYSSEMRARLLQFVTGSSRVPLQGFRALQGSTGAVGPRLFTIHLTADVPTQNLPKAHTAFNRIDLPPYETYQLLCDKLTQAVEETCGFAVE

[3] = biological target: T3, Nedd4 (Drosophila), tagged, in S2 cells (Drosophila) (UniProt Q9VVI3); assay: as above
T3 sequence: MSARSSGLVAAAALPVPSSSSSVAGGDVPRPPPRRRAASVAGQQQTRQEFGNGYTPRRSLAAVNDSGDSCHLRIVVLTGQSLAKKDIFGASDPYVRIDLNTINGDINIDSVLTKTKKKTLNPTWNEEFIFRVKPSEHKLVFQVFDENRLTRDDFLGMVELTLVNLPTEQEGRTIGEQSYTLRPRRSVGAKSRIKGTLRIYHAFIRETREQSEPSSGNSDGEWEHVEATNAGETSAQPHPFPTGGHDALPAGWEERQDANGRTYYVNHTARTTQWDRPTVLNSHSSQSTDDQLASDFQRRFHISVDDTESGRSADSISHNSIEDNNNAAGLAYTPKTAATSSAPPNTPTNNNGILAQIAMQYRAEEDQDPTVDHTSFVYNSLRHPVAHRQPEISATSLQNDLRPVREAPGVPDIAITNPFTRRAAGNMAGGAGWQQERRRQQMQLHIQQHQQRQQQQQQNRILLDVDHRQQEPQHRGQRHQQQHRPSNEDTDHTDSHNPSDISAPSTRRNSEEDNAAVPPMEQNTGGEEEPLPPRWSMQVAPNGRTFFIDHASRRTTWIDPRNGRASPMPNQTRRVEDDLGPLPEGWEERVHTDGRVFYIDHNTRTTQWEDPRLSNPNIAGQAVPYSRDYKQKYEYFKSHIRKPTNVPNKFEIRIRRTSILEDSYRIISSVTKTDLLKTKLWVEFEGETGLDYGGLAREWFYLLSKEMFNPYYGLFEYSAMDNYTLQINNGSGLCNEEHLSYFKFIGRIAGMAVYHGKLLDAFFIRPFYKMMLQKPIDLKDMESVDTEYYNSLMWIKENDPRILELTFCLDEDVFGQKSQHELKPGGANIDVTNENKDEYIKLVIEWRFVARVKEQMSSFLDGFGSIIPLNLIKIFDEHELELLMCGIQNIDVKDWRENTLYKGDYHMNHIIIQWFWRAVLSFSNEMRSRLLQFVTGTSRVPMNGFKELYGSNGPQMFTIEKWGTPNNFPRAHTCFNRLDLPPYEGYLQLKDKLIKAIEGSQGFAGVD

[4] = biological target: Suppressor of deltex (Su(dx)), tagged, in S2 cells (Drosophila) (UniProt Q9Y0H4); assay: as above
[5] = biological target: T4, Flag-tagged Smurf (Drosophila) (UniProt Q9V853); assay: as above
T4 sequence: T2 sequence with A1029C

[6] = biological target: T1, Ptc^CTD (two-hybrid fusion) (Drosophila); assay: two-hybrid; AH109 yeast; bait vector pGBKT7, prey vector pACT2; growth on permissive (-Leu/-Trp) and restrictive (-Ade/-His/-Leu/-Trp) medium; remark: listed apart in the source

## Su(dx) (two-hybrid fusion) (from UniProt Q9Y0H4 1-949) (enzyme)
[1]
  binding: binds

B1: Myc-tagged Ptc (full-length Patched) (receptor, UniProt P18502 1-1286)
chain: MDRDSLPRVPDTHGDVVDEKLFSDLYIRTSWVDAQVALDQIDKGKARGSRTAIYLRSVFQSHLETLGSSVQKHAGKVLFVAILVLSTFCVGLKSAQIHSKVHQLWIQEGGRLEAELAYTQKTIGEDESATHQLLIQTTHDPNASVLHPQALLAHLEVLVKATAVKVHLYDTEWGLRDMCNMPSTPSFEGIYYIEQILRHLIPCSIITPLDCFWEGSQLLGPESAVVIPGLNQRLLWTTLNPASVMQYMKQKMSEEKISFDFETVEQYMKRAAIGSGYMEKPCLNPLNPNCPDTAPNKNSTQPPDVGAILSGGCYGYAAKHMHWPEELIVGGAKRNRSGHLRKAQALQSVVQLMTEKEMYDQWQDNYKVHHLGWTQEKAAEVLNAWQRNFSREVEQLLRKQSRIATNYDIYVFSSAALDDILAKFSHPSALSIVIGVAVTVLYAFCTLLRWRDPVRGQSSVGVAGVLLMCFSTAAGLGLSALLGIVFNAASTQVVPFLALGLGVDHIFMLTAAYAESNRREQTKLILKKVGPSILFSACSTAGSFFAAAFIPVPALKVFCLQAAIVMCSNLAAALLVFPAMISLDLRRRTAGRADIFCCCFPVWKEQPKVAPPVLPLNNNNGRGARHPKSCNNNRVPLPAQNPLLEQRADIPGSSHSLASFSLATFAFQHYTPFLMRSWVKFLTVMGFLAALISSLYASTRLQDGLDIIDLVPKDSNEHKFLDAQTRLFGFYSMYAVTQGNFEYPTQQQLLRDYHDSFVRVPHVIKNDNGGLPDFWLLLFSEWLGNLQKIFDEEYRDGRLTKECWFPNASSDAILAYKLIVQTGHVDNPVDKELVLTNRLVNSDGIINQRAFYNYLSAWATNDVFAYGASQGKLYPEPRQYFHQPNEYDLKIPKSLPLVYAQMPFYLHGLTDTSQIKTLIGHIRDLSVKYEGFGLPNYPSGIPFIFWEQYMTLRSSLAMILACVLLAALVLVSLLLLSVWAAVLVILSVLASLAQIFGAMTLLGIKLSAIPAVILILSVGMMLCFNVLISLGFMTSVGNRQRRVQLSMQMSLGPLVHGMLTSGVAVFMLSTSPFEFVIRHFCWLLLVVLCVGACNSLLVFPILLSMVGPEAELVPLEHPDRISTPSPLPVRSSKRSGKSYVVQGSRSSRGSCQKSHHHHHKDLNDPSLTTITEEPQSWKSSNSSIQMPNDWTYQPREQRPASYAAPPPAYHKAAAQQHHQHQGPPTTPPPPFPTAYPPELQSIVVQPEVTVETTHSDSNTTKVTATANIKVELAMPGRAVRSYNFTS
[2]
  binding: binds
[3]
  binding: binds
[4]
  binding: binds
[5]
  binding: binds

B2: Nedd4 (two-hybrid fusion) (enzyme, UniProt Q9VVI3 1-1007)
chain: T3 sequence
[6]
  binding: binds
